Where “and” joins values, the source holds several entries; their conditions need not be identical. Equal values may be shown once. About 820 (0.21%) of roughly 390,000 compounds were called active. This list was built around the results that the source calls inconclusive (neither active nor inactive); the mix of calls is not that of the screen. Calls follow the shape of the dose curve; as a rule, active = well fitted inhibition curve with a large enough effect; inconclusive = small, poorly fitted or top-dose-only effect, or another doubt; inactive = no such curve, though single readings can be large or run the other way. A potency beside an inconclusive call is a rough fit, not a confirmed value.
biological target: Histone acetyltransferase KAT2A (Homo sapiens) (UniProt Q92830); test: qHTS Assay for Inhibitors of GCN5L2; details: GCN5L2 HAT assay, ThioGlo1 CoA-SH fluorescence; activity change, negative = inhibition: at 58.9 µM (top of the series) unless noted
Outline: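 Enzyme at 20nM final was mixed with library compounds for 15 min at room temperature. Peptide H3(1-25) at 75uM, acetyl-CoA at 70uM and ThioGlo1 at 50uM were then added. Plates were read immediately and after 20 min (Ex340nm/Em540nm).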
% is scaled to controls: 0 for no effect and ±100 for the full control effect; potency is read from the fitted curve at half-maximal effect.

Protein sequences, listed by entry. Tags and fused reporters are not part of them.
UniProt Q92830, whole entry, looked up: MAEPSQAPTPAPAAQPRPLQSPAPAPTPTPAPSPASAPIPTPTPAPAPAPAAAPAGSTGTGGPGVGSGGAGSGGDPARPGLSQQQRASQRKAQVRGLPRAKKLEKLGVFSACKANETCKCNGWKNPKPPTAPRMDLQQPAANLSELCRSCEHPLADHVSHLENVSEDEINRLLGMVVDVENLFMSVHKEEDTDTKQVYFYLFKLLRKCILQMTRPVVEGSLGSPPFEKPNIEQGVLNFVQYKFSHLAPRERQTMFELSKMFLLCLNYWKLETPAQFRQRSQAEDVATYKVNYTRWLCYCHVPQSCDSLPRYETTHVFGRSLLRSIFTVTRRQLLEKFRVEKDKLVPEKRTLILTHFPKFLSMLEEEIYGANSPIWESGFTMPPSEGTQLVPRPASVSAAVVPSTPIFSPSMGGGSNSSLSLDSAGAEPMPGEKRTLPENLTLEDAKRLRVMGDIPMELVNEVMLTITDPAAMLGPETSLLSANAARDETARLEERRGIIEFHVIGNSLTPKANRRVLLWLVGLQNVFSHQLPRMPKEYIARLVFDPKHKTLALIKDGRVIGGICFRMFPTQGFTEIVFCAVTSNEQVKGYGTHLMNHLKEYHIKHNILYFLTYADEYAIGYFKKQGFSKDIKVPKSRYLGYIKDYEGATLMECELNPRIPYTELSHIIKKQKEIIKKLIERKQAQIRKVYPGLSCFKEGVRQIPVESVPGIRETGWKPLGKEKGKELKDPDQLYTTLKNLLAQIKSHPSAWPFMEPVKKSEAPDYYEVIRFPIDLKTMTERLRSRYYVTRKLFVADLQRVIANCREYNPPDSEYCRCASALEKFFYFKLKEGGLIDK

SMILES	Potency	activity change, negative = inhibition
Cc1cccc(NC(=O)CNC(=O)c2cccc(-n3cccc3)c2)c1C	inconclusive: 12.6 µM [inhibitor, partial curve]	–
Cc1ccc(NC(=O)c2ccco2)c(NC(=O)c2ccccc2)c1	inactive	–
CC[C@]1(c2ccccc2C)ON(c2ccccc2C(F)(F)F)C1=O	inconclusive: 20 µM [inhibitor, partial curve]	–
Cn1c2ccccc2n2c(=O)cc(-c3ccccc3)c(C#N)c12	inactive	–
Cc1ccc(N(CC(O)CN2C(=O)NC(C)(C)C2=O)S(=O)(=O)c2ccc([N+](=O)[O-])cc2)cc1 (stereo not drawn)	inconclusive: 3.98 µM [inhibitor, full curve, poor fit]	–
COc1ccc(CNC(=O)CN(CC2CCCO2)C(=O)CNS(=O)(=O)c2ccccc2)cc1 (stereo not drawn)	inconclusive: 0.794 µM [inhibitor, single point]	–
Oc1ccc(/C=N/N(c2ccccc2)c2ccccc2)cc1O	inconclusive: 2.82 µM [inhibitor, full curve, poor fit]	–
CC[n+]1ccc(C(=O)NCc2ccccc2)cc1	inactive	–
O=c1c2ccccc2n2c(=S)[nH]nc2n1-c1ccccc1	inconclusive: 28.2 µM [inhibitor, single point]	–
O=C1CCCC2=C1C(c1ccco1)Nc1ccc3ccccc3c12 (stereo not drawn)	inconclusive: 25.1 µM [inhibitor, single point]	–
CC(=O)c1cccc(NC(=O)C2CCN(c3ncnc4c3nc3n4CCCCC3)CC2)c1	inconclusive: 0.891 µM [inhibitor, single point]	–
O=C(c1cccc(F)c1)N1CCN(C(=O)c2cc3nc(-c4ccco4)cc(C(F)(F)F)n3n2)CC1	inactive	–
Cc1cccc(N2CCN(C(=O)Cn3sc4nc(C)cc(C)c4c3=O)CC2C)c1 (stereo not drawn)	inconclusive: 22.4 µM [inhibitor, partial curve]	–
CC(CCc1ccccc1)NC(=O)Cn1c(=O)nc(-c2ccccc2)c2cc(Cl)ccc21 (stereo not drawn)	inactive	–
CCc1ccc2oc(C(=O)N(Cc3ccc(N(C)C)cc3)Cc3ccco3)c(C)c2c1	inactive	–
CC(C)(C)OC(=O)N1CCN(C(=O)c2[nH]cnc2C(=O)N[C@@H](Cc2ccccc2)C(=O)OCc2ccccc2)CC1	inconclusive: 39.8 µM [inhibitor, single point]	–
CCOc1ccccc1NC(=S)NC(=O)CCc1ccccc1	inconclusive: 7.08 µM [inhibitor, single point]	–
Cn1cc(-c2nnnn2-c2ccccc2)c(=O)c2ccccc21	inconclusive: 0.355 µM [inhibitor, partial curve, poor fit]	–
COc1ccc2c(c1)c(=O)c(C(=O)c1ccccc1)cn2CC(=O)Nc1ccc2c(c1)OCO2	inactive	–
COc1ccccc1N1CCN(CCN(C(=O)c2ccc(I)cc2)c2ccccn2)CC1	inconclusive: 39.8 µM [inhibitor, single point]	–
COC(=O)c1ccccc1NC(=O)c1noc2c1CCC2	inconclusive: 35.5 µM [inhibitor, single point]	–
CCNC(=S)N(CCO)Cc1cc2cc3c(cc2[nH]c1=O)OCO3	inconclusive: 22.4 µM [inhibitor, single point]	–
COc1cc2c(cc1OC)C1=NC(=O)CN1C(SCc1ccccc1)=N2	inconclusive: 39.8 µM [inhibitor, single point]	–

SMILES	Potency	activity change, negative = inhibition
CCOc1c2ccc(C(=O)NCc3ccco3)cc2nn1CCOC	active: 28.2 µM	–
C[N+](C)(C)CC(O)CC(=O)O (stereo not drawn)	inconclusive: 25.1 µM [inhibitor, partial curve, poor fit] and inconclusive: 39.8 µM [inhibitor, single point]	–
Cc1noc(C)c1-c1ccc2ncnc(NC3CCNCC3)c2c1	inconclusive: 28.2 µM [inhibitor, single point]	–
Cc1ccccc1Cn1nc(C)c(NC(=O)c2sc3ccccc3c2Cl)c1C	inactive	–
O=C(C1=NN(c2ccccc2)C2C(=O)N(c3ccccc3Cl)C(=O)C12)c1ccccc1 (stereo not drawn)	inconclusive: 20 µM [inhibitor, partial curve]	–
COc1ccc(CNC(=O)c2sc3nc4n(c(=O)c3c2C)CCCC4)cc1	inconclusive: 31.6 µM [inhibitor, single point]	–
CCOc1ccc(CCNC(=O)C2CSC3(C)CCC(=O)N23)cc1OCC (stereo not drawn)	inconclusive: 3.55 µM [inhibitor, full curve, poor fit]	–
C/C(=N\Nc1nnc(-c2ccccc2)c(-c2ccccc2)n1)c1cccc([N+](=O)[O-])c1	inactive	–
CCC(C(=O)NC(C)(C)C)N(C(=O)c1ccc(Cl)nc1)C1CCCC1 (stereo not drawn)	inconclusive: 4.47 µM [inhibitor, single point]	–
Clc1ccc(C2=CC(c3ccco3)n3ncnc3N2)cc1 (stereo not drawn)	inconclusive: 0.141 µM [inhibitor, full curve, poor fit]	–
Cn1c(=O)oc2cc(C(=O)c3ccccc3)ccc21	inconclusive: 14.1 µM [inhibitor, partial curve, poor fit]	–
COc1ccc(NC(=S)NC(NC(=O)/C=C/c2ccccc2)C(Cl)(Cl)Cl)cc1 (stereo not drawn)	active: 1 µM	–
CCn1c2ccccc2c2cc(/C=N/n3c(C)nnc3C)ccc21	inconclusive: 31.6 µM [inhibitor, single point]	–
O=C(C1CCC(=O)N(C2CC2)C1)N1CCC(Oc2cccc(F)c2)CC1 (stereo not drawn)	inconclusive: 0.1 µM [inhibitor, full curve, poor fit]	–
COc1ccc(C[C@H]2CN3C(=NC[C@@H]3C(C)C)N2CCNC(=O)CCC2CCCCC2)cc1	inactive	–
CCc1ccc(OCC(=O)Nc2ccc3c(c2)c2ccccc2n3CC)cc1	inactive	–
CCOc1ccc(-c2c(C#N)c(N)nc3sc(C(=O)c4ccccc4)c(N)c23)cc1	inconclusive: 1 µM [inhibitor, partial curve]	–
COCCNc1ncnc2ccc(-c3ccoc3)cc12	inconclusive: 25.1 µM [inhibitor, partial curve]	–
CCC1Nc2ncnc(N3CCN(c4ccccc4)CC3)c2N(Cc2ccc(C)cc2)C1=O (stereo not drawn)	inconclusive: 39.8 µM [inhibitor, single point]	–
COc1ccc(Nc2nc(C(=O)NCc3ccco3)cs2)cc1	inactive	–
Cc1occc1C(=O)Nc1ccccc1C#N	inconclusive: 7.94 µM [inhibitor, full curve, poor fit]	–
CC1=C(C(=O)Nc2cccnc2)C(c2ccc(F)cc2)n2nc(-c3cccc(C)c3)nc2N1 (stereo not drawn)	inactive	–
CCCN1CCN(CC(=O)Nc2nnc(CC)s2)CC1	inconclusive: 39.8 µM [inhibitor, single point]	–

SMILES	Potency	activity change, negative = inhibition
COc1ccc2[nH]c3c(c2c1)CCNC3c1ccc([N+](=O)[O-])o1 (stereo not drawn)	inactive	–
COCCNC(=O)/C(C#N)=C/c1c(N2CCN(c3ccc(OC)cc3)CC2)nc2c(C)cccn2c1=O	inconclusive: 8.91 µM [inhibitor, single point]	–
Clc1cccc(Cl)c1/C=N\Nc1nccs1	inconclusive: 0.891 µM [inhibitor, full curve, poor fit]	–
O=S1(=O)CCC(NC(=S)Nc2ccc3ccccc3c2)C1 (stereo not drawn)	inconclusive: 5.62 µM [inhibitor, single point]	–
Cc1cccc(-c2noc(CSc3ccccc3)n2)c1	inconclusive: 0.708 µM [inhibitor, single point]	–
O=C(CCC(=O)N1CCc2ccccc2C1)N1CCN(S(=O)(=O)c2ccccc2)CC1	inactive	–
O=C(CCCc1ccccc1)NC12CC3CC(CC(C3)C1)C2	inconclusive: 39.8 µM [inhibitor, single point]	–
Cc1ccc(C)c(NC(c2ccccc2)c2nnc(-c3ccccc3F)o2)c1 (stereo not drawn)	inactive	–
CC[C@H](C)[C@H](NC(=O)[C@H](CC(C)C)NC(=O)[C@@H](N)CO)C(=O)NCC(=O)N[C@@H](CCCN=C(N)N)C(=O)N[C@@H](CC(C)C)C(=O)O	inactive	–
O=C(Nc1cccc(-c2csc(Nc3cccc(C(F)(F)F)c3)n2)c1)c1cc([N+](=O)[O-])cc(C(F)(F)F)c1	inconclusive: 2 µM [inhibitor, partial curve]	–
CN(CC(=O)Nc1n[nH]c(=S)s1)S(=O)(=O)c1cccc2cccnc12	inconclusive: 39.8 µM [inhibitor, single point]	–
Cc1ccc(C(=O)N/N=C/c2nc3ccccc3n2C)cc1	inconclusive: 3.16 µM [inhibitor, single point]	–
CCn1nc(C)c(CN2CCC(n3nccc3NC(=O)Cc3ccccc3)CC2)c1C	inactive	–
O=C(CCC1CCCN(C(=O)C2CCCC2)C1)NCc1ccc(F)c(F)c1 (stereo not drawn)	inactive	–
CCC1C(C#N)=C(SCC(N)=O)NC2=C1C(=O)CC(C)(C)C2 (stereo not drawn)	inactive	–
CC[C@H](CC[C@@H](C)C1CC[C@H]2[C@@H]3CC=C4C[C@@H](O)CC[C@]4(C)[C@H]3CC[C@]12C)C(C)C (stereo partly drawn)	–	inactive: 9.57% [at 0.501 µM]
CCCCNc1c(-c2ccc(OC)c(Sc3ccc(OC)cc3)c2)nc2cnccn12	inconclusive: 22.4 µM [inhibitor, single point]	–
COc1cccc(/C=N/NC(=O)C(C)Cn2cnc3ccccc32)c1 (stereo not drawn)	inactive	–
Cc1cccc(-c2ncc(CN3CCCC(CO)(Cc4ccccc4C)C3)cn2)c1 (stereo not drawn)	inactive	–
CCN1C(=O)c2cccc3c(S(=O)(=O)Nc4ncccc4C)ccc1c23	inconclusive: 0.631 µM [inhibitor, single point]	–
CC(C)(C)n1ncc2c(=O)n(CC(=O)NCc3ccccc3Cl)cnc21	inconclusive: 3.16 µM [inhibitor, single point]	–
O=C(O)c1cccc(S(=O)(=O)Nc2ccc3oc(=O)sc3c2)c1	inconclusive: 39.8 µM [inhibitor, single point]	–

Whole records from above. Values in the order: Potency | activity change, negative = inhibition
Cc1cccc(-c2ncc(CN3CCCC(CO)(Cc4ccccc4C)C3)cn2)c1 (stereo not drawn) reads inactive | –
O=S1(=O)CCC(NC(=S)Nc2ccc3ccccc3c2)C1 (stereo not drawn) reads inconclusive: 5.62 µM [inhibitor, single point] | –
COCCNC(=O)/C(C#N)=C/c1c(N2CCN(c3ccc(OC)cc3)CC2)nc2c(C)cccn2c1=O reads inconclusive: 8.91 µM [inhibitor, single point] | –
CC[C@H](CC[C@@H](C)C1CC[C@H]2[C@@H]3CC=C4C[C@@H](O)CC[C@]4(C)[C@H]3CC[C@]12C)C(C)C (stereo partly drawn) reads – | inactive: 9.57% [at 0.501 µM]
